The values below are quoted from earlier work in patent publication EP2168965A1, “Substituted imidazopyridine, imidazopyrazine, imidazopyridazine and imidazopyrimidine derivatives as melanocortin-4 receptor antagonists” (Santhera Pharmaceuticals (Schweiz) AG, priority 2008, dated 2010).

SMILES strings stand for the structures.

The conditions of this series: control compounds of the Caco-2 assay; Zhao et al. 2001; cited from earlier work.

In the case of `CC(C)NCC(O)COc1ccc(CC(N)=O)cc1` (stereo not shown) [atenolol], the human absorption entry was “approximately 50%”.
